Reference: patent US20230399416A1 (MIRIMGENE, published 2023)
Results are given in words; binding and its absence hold for the method and conditions named. Some entries that bind do so weakly or less than the wild type.

Legend:
[1] = target: T1, WARS1 (SEQ ID NO 26) (Homo sapiens (Human)) (UniProt P23381); experiment: summary of the examples (SPR, ELISA, immunoblot)
T1 sequence: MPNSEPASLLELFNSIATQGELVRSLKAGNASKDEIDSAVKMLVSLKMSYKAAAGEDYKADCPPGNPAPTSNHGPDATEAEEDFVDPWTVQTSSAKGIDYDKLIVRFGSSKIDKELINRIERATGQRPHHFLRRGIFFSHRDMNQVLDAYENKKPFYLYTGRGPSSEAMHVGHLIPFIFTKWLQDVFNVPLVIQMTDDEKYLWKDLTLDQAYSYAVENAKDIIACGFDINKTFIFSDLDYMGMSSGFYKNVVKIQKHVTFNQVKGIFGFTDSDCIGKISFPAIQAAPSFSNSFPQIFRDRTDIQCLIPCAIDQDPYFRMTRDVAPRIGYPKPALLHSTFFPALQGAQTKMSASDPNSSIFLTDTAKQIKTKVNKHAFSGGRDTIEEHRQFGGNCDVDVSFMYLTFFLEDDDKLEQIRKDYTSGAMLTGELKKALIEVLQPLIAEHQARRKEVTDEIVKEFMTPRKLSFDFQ

[2] = target: T2, human WARS1 recombinant protein (human, UniProt P23381 1-471, limits assumed); experiment: sandwich ELISA (GKB101 coated, recombinant WARS1 titrated) and SPR
T2 construct: In the immunoblot the endogenous WARS1 of THP-1 human monocytes was also detected; also called human recombinant protein; tryptophanyl-tRNA synthetase 1, cytoplasmic
T2 sequence (looked up): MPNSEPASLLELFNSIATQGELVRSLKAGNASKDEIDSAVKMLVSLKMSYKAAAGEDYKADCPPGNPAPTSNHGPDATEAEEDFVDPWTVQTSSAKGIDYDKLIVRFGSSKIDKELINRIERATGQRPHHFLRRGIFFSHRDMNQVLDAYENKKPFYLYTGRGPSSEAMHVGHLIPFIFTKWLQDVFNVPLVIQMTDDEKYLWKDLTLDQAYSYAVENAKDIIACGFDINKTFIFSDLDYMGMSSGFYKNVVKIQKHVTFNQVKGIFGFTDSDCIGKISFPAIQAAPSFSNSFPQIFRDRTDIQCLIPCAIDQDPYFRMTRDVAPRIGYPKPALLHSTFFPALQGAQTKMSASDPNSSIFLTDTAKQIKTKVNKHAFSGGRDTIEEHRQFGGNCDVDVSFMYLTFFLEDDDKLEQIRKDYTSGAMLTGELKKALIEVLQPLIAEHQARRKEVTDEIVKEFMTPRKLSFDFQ

[3] = target: T2, human WARS1 recombinant protein; experiment: immunoblot, LPS-stimulated THP-1 human monocytes and human recombinant WARS1, 1 µg/mL GKB101
[4] = target: T3, mouse WARS1 recombinant protein (mouse, UniProt P32921 1-481, limits assumed); experiment: immunoblot, LPS-stimulated J774.1A mouse macrophages and mouse recombinant WARS1, 1 µg/mL GKB101
T3 construct: In the immunoblot the endogenous WARS1 of J774.1A mouse macrophages was also detected; also called mouse recombinant protein
T3 sequence (looked up): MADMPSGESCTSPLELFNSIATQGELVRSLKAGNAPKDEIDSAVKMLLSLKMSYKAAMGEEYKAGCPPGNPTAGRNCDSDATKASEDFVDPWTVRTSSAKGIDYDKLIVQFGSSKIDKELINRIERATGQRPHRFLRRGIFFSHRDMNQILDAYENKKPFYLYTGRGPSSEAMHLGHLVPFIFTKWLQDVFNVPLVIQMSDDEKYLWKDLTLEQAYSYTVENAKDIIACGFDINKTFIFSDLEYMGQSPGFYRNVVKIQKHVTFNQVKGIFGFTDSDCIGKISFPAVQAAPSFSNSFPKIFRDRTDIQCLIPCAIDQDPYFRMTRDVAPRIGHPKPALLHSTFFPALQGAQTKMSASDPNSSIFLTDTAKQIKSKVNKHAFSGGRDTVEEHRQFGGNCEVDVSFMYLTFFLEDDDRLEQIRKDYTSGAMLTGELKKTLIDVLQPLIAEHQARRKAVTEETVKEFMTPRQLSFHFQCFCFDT

Measured: binding

B1: GKB101 (antibody, IgG1, V domains shown)
VH: EVQLLESGGGLVQPGGSLRLSCAASGFTFSSYDMSWVRQAPGKGLEWVSAISSGGSSIYYADSVKGRFTISRDNSKNTLYLQMNSLRAEDTAVYYCARDVAWDMLGDFDYWGQGTLVTVSS
VL: QSVLTQPPSASGTPGQRVTISCTGSSSNIGSNYVYWYQQLPGTAPKLLIYANSHRPSGVPDRFSGSKSGTSASLAISGLRSEDEADYYCGAWDDSLSAYVFGGGTKLTVTV
notes: IgG1 made from the selected scFv with the constant regions of herceptin expression vectors, expressed in Expi293F cells; Joined as printed they may lack a few residues at the junctions (VL/CL, CH2/CH3) and at the C-terminus of CH3; also called WARS1-specific antibody; anti-WARS1 antibody
binds: [1] | [2] | [3] | [4]
